One molecule from patent publication JP2005168497A can be followed below.

The chains behind the UniProt entries cited, without tags or fusion partners. Residues count along the entry.
UniProt O14763, residues 56-210: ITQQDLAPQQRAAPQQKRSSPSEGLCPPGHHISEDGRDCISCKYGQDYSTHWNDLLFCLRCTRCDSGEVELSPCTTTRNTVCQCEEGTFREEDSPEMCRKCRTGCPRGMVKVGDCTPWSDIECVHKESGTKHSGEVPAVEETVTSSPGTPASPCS

The target of this test is TRAIL-R2-hFc (ヒトTRAIL-R2の細胞外領域とヒトIgG1のFc領域とが融合したタンパク質, ALEXIS社製) (human) (UniProt O14763). The test can be described thus: ELISA, purified antibody on plate-coated TRAIL-R2-hFc (Example 4). For orientation: ELISA stands for enzyme-linked immunosorbent assay.

No constants are given. Whether binding was seen depends on the method and setting. Some entries that bind do so weakly or less than the wild type.

B1: KMTR1抗体 (ハイブリドーマKMTR1, FERM BP-8038 の産生するヒトモノクローナル抗体) (antibody, V domains shown)
VH: EVQLLESGGGLVQPGRSLRLSCAASGFTFSSYAMSWVRQAPGKGLEWVSAISGSGGSRYYADSVKGRFTISRDNSKNTLYLQMNSLRAEDTAVYYCAKESSGWFGAFDYWGQGTLVTVSS
VL: EIVLTQSPDFQSVTPKEKVTITCRASQSIGSSLHWYQQKPDQSPKLLIKYASQSFSGVPSRFSGSGSGTDFTLTINSLEAEDAAAYYCHQSSSLPITFGQGTRLEIK
As for B1, the binding entry was “binds”.
